Test system: Hydractinia echinata
Experiment: Hydractinia echinata test system (HeTS): reduction of Cs+-induced metamorphosis of larvae
Assay type: in vivo
Conditions: compared with Amaranth (57)
Procedure: The average (C) concentrations of these values were calculated too. The MRC50 value calculations (Chicu et al.) result from the graphical representation of the metamorphosis variation, M (%), (Y axis) function of the xenobiotic’s concentration (mol/L) (X axis), where the metamorphosis decreases with the rise of the xenobiotic’s concentration. Thus, the MRC50 value represents the xenobiotic’s concentration (mol/L) necessary for a 50% decrease of metamorphosis, with respect to control.
For each concentration of substance experiments were performed in triplicate and were repeated at least twice.
Colonies of H. echinata (Biologische Anstalt, Helgoland, Germany) were used to obtain eggs and larvae. The culture medium was artificial seawater (980 mosmol, pH 8.2, 18 °C). In laboratory an artificial metamorphosis can be synchronically started by the introduction of Cs^+ ions or by using seawater without Mg^2+ ions; it then lasts only 24 h. Under the action of external stimulus of Cs^+ ions or Cs^+ ions together with the tested compounds, one part of larvae further lives as such and another one is metamorphosized to the polyp form. […]
H. echinata larvae were exposed to seawater containing Cs^+ and simultaneously one of the test substances for 3 h. The percentage of animals that underwent metamorphosis (development into polyps) was determined after 24 h. […]

SMILES: O=S(=O)([O-])c1ccc(N=Nc2c(O)ccc3ccccc23)c2ccccc12.[Na+] [Compound 56, Acid Red 88 (Fast Red AV)]
- effectiveness higher by: 1 log unit

From paper PMC6270994, “The Hydractinia echinata Test-System. III: Structure-Toxicity Relationship Study of Some Azo-, Azo-Anilide, and Diazonium Salt Derivatives” (Molecules, 2014)
